# Test system: dLight
# Type: cell-based
smiles,measurement,value
"CCN(CC)C(=O)N[C@H]1C=C2c3cccc4[nH]cc(c34)C[C@H]2N(C)C1 [LIS, lisuride]",activation of dLight,both activated dLight to the same extent

# — patent US20230384333A1 (priority 2020, published 2023)
